These results are taken from US20240368183A1, “Macrocyclic Compounds Having ENT1 Inhibiting Activity” (iTeos Belgium SA, priority 2021, published 2024).

Protein sequences, listed by entry. Tags and fused reporters are not part of them.
UniProt Q99808, whole entry: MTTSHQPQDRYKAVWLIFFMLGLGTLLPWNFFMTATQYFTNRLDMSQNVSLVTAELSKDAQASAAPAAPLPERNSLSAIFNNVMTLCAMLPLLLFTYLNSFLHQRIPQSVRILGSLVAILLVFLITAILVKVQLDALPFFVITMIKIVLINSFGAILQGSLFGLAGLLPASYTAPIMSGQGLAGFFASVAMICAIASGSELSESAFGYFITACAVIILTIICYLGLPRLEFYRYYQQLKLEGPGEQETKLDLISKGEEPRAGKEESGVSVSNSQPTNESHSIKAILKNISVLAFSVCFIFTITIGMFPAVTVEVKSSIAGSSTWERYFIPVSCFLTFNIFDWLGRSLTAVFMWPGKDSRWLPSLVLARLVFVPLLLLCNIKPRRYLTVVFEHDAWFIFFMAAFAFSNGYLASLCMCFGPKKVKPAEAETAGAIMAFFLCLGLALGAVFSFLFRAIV

The match of structure and compound is tentative.

This test has as its target human ENT1 (Homo sapiens, UniProt Q99808). In words: ENT1 binding assay (competition with Sahenta-DY647). The settings on record: read-out: Binding Assay IC50; JAR cells expressing ENT1; competition with Sahenta-DY647 (100 nM); 4° C.; tested form: TFA. The protocol: The present assay aims at showing that the compounds of the present disclosure can bind to human ENT1. The principle of the assay is a competition between the compounds of this present disclosure and Sahenta-DY647, an ENT1 inhibitor that emits fluorescence (Ex=630 nm, Em=670 nm). By measuring the fluorescence at the end of the assay we could assess the binding potency of the compounds of the present disclosure.
JAR cells expressing ENT1 were bought from ATCC® (HTB-144TM). Cells were cultured in RPMI 1640 medium (LONZA®, #BE12-702F/U1) supplemented with 10% FBS (GIBCO®, #10270-106), 10 mM Hepes (LONZA®, #BE17-737E), 1 mM Sodium Pyruvate (LONZA®, #BE13-115E) and 2% Penicillin/Streptomycin (LONZA®, #DE17-603E) at 37° C. and 5% CO2. The assay was conducted on the following buffer: HBSS (LONZA®, #LO-527F) supplemented with 10 mM Hepes (LONZA®, #BE17-737E) and 0.1% BSA (Miltenyi®, #130-091-376) on the day of the assay.
JAR cells were resuspended in the described buffer. Compounds of the present disclosure and Sahenta-DY647 were diluted 200× in the described buffer.
A total of 50 000 cells were pre-incubated for 30 min at 4° C. with the compounds of the present disclosure before adding the corresponded IC90 of Sahenta-DY647 (100 nM) and incubate once more for 30 min at 4° C. […]

As usually defined, the IC50 is the concentration that inhibits the measured activity by half. `COc1cc(C(=O)O[C@@H]2CCCOc3cc(cc(OC)c3OC)C(=O)NCCCN3CCN(CC2)CC3)cc(OC)c1OC`: the IC50 fell in the range of 20 to 500 nM.
